Results deposited as PubChem BioAssay AID1224830 (NIAID, 2016).

Test: 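Host factors that control LPS-induced TNF expression in human macrophages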 (primary screen)
System: human THP-1 monocytic leukaemia cells, TNF dual-luciferase reporter clone, PMA-differentiated to macrophage-like cells
Knock-down reagent: siRNA pool against human genes, 50 nM
Duration: LPS for 4 h, given about 3 days after siRNA transfection
Conditions: bacterial LPS (TLR4 ligand), 10 ng/ml
Measurement: 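Ratio of firefly to renilla light, scaled to the plate median and expressed as a robust z-score per replicate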
Scale: TNF reporter robust z-score: higher = stronger TNF reporter response to LPS
Hit rule: 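a well is active when its z-score exceeds 2.8 or falls below -1.5; control wells carry no call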
The deposit covers about 18,000 reagents; this is a part drawn at random. In the full data, about 2,900 (16%) got an active call. 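Calls are made per well; low scores hint the gene aids the LPS response, high scores that it dampens it.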 Unmarked entries are inactive. Repeated entries: four replicate wells of each siRNA pool. Reagent sequences are not shown.

The first 6 records, to show the layout:
no.	gene	TNF reporter robust z-score
1	KRT17	-0.67
2	KRT17	-0.6
3	KRT17	-0.93
4	KRT17	-0.72
5	TRAPPC9	0.94
6	TRAPPC9	1.61

Results, from the first entry:
no.	gene	TNF reporter robust z-score
1	KRT17	-0.67
2	KRT17	-0.6
3	KRT17	-0.93
4	KRT17	-0.72
5	TRAPPC9	0.94
6	TRAPPC9	1.61
7	TRAPPC9	-0.55
8	TRAPPC9	-0.24
9	DBN1	-0.37
10	DBN1	-0.45
11	DBN1	-0.8
12	DBN1	-0.35
13	AQP6	0.58
14	AQP6	-0.63
15	AQP6	0.43
16	AQP6	2.24
17	ABCF2	1.78
18	ABCF2	0.94
19	ABCF2	0.27
20	ABCF2	0.43
21	PUS3	-0.32
22	PUS3	0.68
23	PUS3	0.03
24	PHETA1	0.11
25	PHETA1	1.14
26	PHETA1	0.1
27	PHETA1	0.94
28	SERPINB9	-0.03
29	SERPINB9	0.31
30	SERPINB9	-0.68
31	SERPINB9	0.3
32	TIMP3	-0.19
33	TIMP3	0.66
34	TIMP3	0.32
35	TIMP3	0.04
36	F3	0.4
37	F3	0.37
38	F3	-0.36
39	F3	-0.32
40	NBEA	-1.17
41	NBEA	2.21
42	NBEA	0.85
43	NBEA	4.23 (active)
44	CTTN	-0.42
45	CTTN	0.44
46	CTTN	-1.06
47	CTTN	0.27
48	WSCD1	-0.56
49	WSCD1	-0.41
50	WSCD1	-0.76
51	WSCD1	-0.31
52	HID1	0.7
53	HID1	2.91 (active)
54	HID1	0.93
55	HID1	1.52
56	MRPS31	-1.03
57	MRPS31	-0.48
58	MRPS31	0.41
59	MRPS31	-1.29
60	GFPT1	-0.19
61	GFPT1	0.78
62	GFPT1	0.47
63	GFPT1	0.2
64	PCP2	-0.98
65	PCP2	-0.61
66	PCP2	-0.26
67	PCP2	-0.8
68	TRAF7	-1.18
69	TRAF7	-1.19
70	TRAF7	-0.7
71	TRAF7	0.32
72	CHST9	0.56
73	CHST9	-0.42
74	CHST9	0.82
75	CHST9	1.71
76	ZNF823	-0.57
77	ZNF823	0.36
78	ZNF823	0.12
79	ZNF823	0.11
80	NUDT5	-0.61
81	NUDT5	-0.15
82	NUDT5	-0.09
83	NUDT5	1.35
84	CCAR1	-1.08
85	CCAR1	-1.28
86	CCAR1	-1.51 (active)
87	CCAR1	0.52
88	ANKRA2	-0.11
89	ANKRA2	0.14
90	ANKRA2	-0.61
91	ANKRA2	-0.68
92	PLG	1.75
93	PLG	0.51
94	PLG	-0.28
95	PLG	0.37
96	PAX4	0.54
97	PAX4	0.5
98	PAX4	0.84
99	PAX4	0.86
100	CAPN10	-0.08
101	CAPN10	1.02
102	CAPN10	0.75
103	CAPN10	-0.48
104	NMUR1	-0.72
105	NMUR1	-0.76
106	NMUR1	-0.5
107	NMUR1	-0.22
108	RAB8A	-0.4
109	RAB8A	0.5
110	RAB8A	-0.66
111	RAB8A	1.02
